No constants are given. Whether binding was seen depends on the method and setting. Some entries that bind do so weakly or less than the wild type.
Target: BMP-7 growth factor (GF) dimer (UniProt P18075)
Assay: SPR; competition: PD variants (30-292, 65-292) immobilised at 500-800 RU, 100 nM BMP-7 GF injected with 0-500 nM soluble BMPRII extracellular domain, bound GF detected by a following injection of 100 nM monoclonal anti-BMP-7 GF antibody; HBS-EP; both purified

The chains behind the UniProt entries cited, without tags or fusion partners. Residues count along the entry.
UniProt P18075, residues 293-431: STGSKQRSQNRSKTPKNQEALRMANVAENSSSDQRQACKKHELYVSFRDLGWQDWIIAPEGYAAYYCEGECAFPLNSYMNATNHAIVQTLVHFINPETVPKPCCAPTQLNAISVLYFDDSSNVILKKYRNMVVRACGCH

B1: soluble extracellular domain of BMPRII receptor (receptor, UniProt Q13873 27-150)
chain: SQNQERLCAFKDPYQQDLGIGESRISHENGTILCSKGSTCYGLWEKSKGDINLVKQGCWSHIGDPQECHYEECVVTTTPPSIQNGTYRFCCCSTDLCNVNFTENFPPPDTTPLSPPHSFNRDET
In the case of B1, the binding is reported as “binds”.

— publication PMC4933460
